PubChem BioAssay AID1259308 – NCATS – 2017
Here is an unselected part of about 59,000 reagents tested. In the full data, about 1,510 (2.6%) were called active. 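Calls use total luciferase alone and ignore viability, so some active siRNAs may act by altering cell number.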 The numbers tell different reagents against one gene apart. Further read-outs or replicates are left out here. Reagent sequences are not shown.

- Screen: 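Genes whose loss raises luciferase production in HEK293 cells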 (primary screen)
- Cell system: human HEK293 embryonic kidney cells stably expressing firefly luciferase (HEK-CMV-Luc2-Hygro)
- Reagents: single siRNA against human genes, 0.8 pmol siRNA per well
- Time to read-out: 72 h
- Read-out: 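Luciferase light (ONE-Glo) measured on one replicate plate set and viability (CellTiter-Glo) on the other, scaled to a negative control siRNA, with robust z-scores and luciferase per cell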
- Reading the numbers: total luciferase, z-score and total luciferase, % of control: higher = more reporter protein produced
- Active means: 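Active when the median/MAD z-score for overall luciferase is greater than 3; a gene was taken forward for validation with new siRNAs if at least two of its three siRNAs passed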
- Meaning of the calls: active = raised luciferase; inactive = no rise

no.	target	reagent	total luciferase, z-score	total luciferase, % of control	outcome
1	SYT13	1	1.42	110	inactive
2	SYT13	2	-1.56	50.9	inactive
3	SYT13	3	0.327	88.4	inactive
4	ARHGAP15	1	1.26	107	inactive
5	ARHGAP15	2	0.0144	82.2	inactive
6	ARHGAP15	3	0.26	87.1	inactive
7	CCRL2	1	0.6	93.8	inactive
8	CCRL2	2	-1.59	50.3	inactive
9	CCRL2	3	0.0909	83.7	inactive
10	CCRL2	4	0.557	93	inactive
11	CCRL2	5	0.734	96.5	inactive
12	CCRL2	6	0.788	97.6	inactive
13	OCA2	1	1.73	116	inactive
14	OCA2	2	0.131	84.5	inactive
15	OCA2	3	-0.285	76.2	inactive
16	KMT2C	1	-0.0657	80.6	inactive
17	KMT2C	2	0.285	87.6	inactive
18	KMT2C	3	-0.106	79.8	inactive
19	RPL21P44	1	0.138	84.6	inactive
20	RPL21P44	2	0.737	96.5	inactive
21	RPL21P44	3	0.602	93.9	inactive

Next part (6 carried over from the part before).
no.	target	reagent	total luciferase, z-score	total luciferase, % of control	outcome
16	KMT2C	1	-0.0657	80.6	inactive
17	KMT2C	2	0.285	87.6	inactive
18	KMT2C	3	-0.106	79.8	inactive
19	RPL21P44	1	0.138	84.6	inactive
20	RPL21P44	2	0.737	96.5	inactive
21	RPL21P44	3	0.602	93.9	inactive
22	SNTG2	1	-0.404	73.9	inactive
23	SNTG2	2	0.217	86.2	inactive
24	SNTG2	3	-0.522	71.5	inactive
25	RPTOR	1	-0.999	62	inactive
26	RPTOR	2	-0.0651	80.6	inactive
27	RPTOR	3	-0.88	64.4	inactive
28	IQGAP1	1	0.349	88.8	inactive
29	IQGAP1	2	0.693	95.7	inactive
30	IQGAP1	3	-0.153	78.8	inactive
31	CDADC1	1	-0.107	79.8	inactive
32	CDADC1	2	2.89	139	inactive
33	CDADC1	3	0.173	85.3	inactive
34	PIK3IP1	1	1.12	104	inactive
35	PIK3IP1	2	0.97	101	inactive
36	PIK3IP1	3	0.486	91.6	inactive
37	PHLDB3	1	-0.65	69	inactive
38	PHLDB3	2	-1.11	59.8	inactive
39	PHLDB3	3	0.603	93.9	inactive
40	PHLDB3	4	-0.875	64.5	inactive
41	PHLDB3	5	0.364	89.1	inactive
42	PHLDB3	6	1.05	103	inactive
43	ICMT	1	0.501	91.9	inactive
44	ICMT	2	0.245	86.8	inactive
45	ICMT	3	2.25	127	inactive
46	AKAIN1	1	2.99	141	inactive
47	AKAIN1	2	0.77	97.2	inactive
48	AKAIN1	3	1.88	119	inactive
49	CHRNB3	1	0.291	87.7	inactive
50	CHRNB3	2	-0.292	76.1	inactive
51	CHRNB3	3	0.793	97.7	inactive
52	IFI27	1	-2.16	38.9	inactive
53	IFI27	2	0.25	86.9	inactive
54	IFI27	3	0.323	88.3	inactive
55	IFT81	1	0.809	98	inactive
56	IFT81	2	0.33	88.4	inactive
57	IFT81	3	0.698	95.8	inactive
